In patent US20220387557A1:
No constants are given. Whether binding was seen depends on the method and setting. Some entries that bind do so weakly or less than the wild type.

Sequences of proteins named here, by UniProt entry; tags and fusion partners are left off. Residues count along the entry.
UniProt P19438, residues 22-211: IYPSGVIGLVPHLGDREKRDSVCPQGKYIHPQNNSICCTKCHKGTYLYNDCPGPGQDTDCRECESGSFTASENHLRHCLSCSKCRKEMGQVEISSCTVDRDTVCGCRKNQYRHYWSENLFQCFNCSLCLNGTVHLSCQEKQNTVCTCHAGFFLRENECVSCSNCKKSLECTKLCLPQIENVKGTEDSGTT
UniProt P06804, residues 80-235: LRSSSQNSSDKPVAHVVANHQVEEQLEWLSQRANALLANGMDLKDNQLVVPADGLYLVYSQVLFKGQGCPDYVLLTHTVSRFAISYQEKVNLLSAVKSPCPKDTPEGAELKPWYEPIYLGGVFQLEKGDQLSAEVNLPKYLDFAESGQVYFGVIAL

Tests used:
[1] = biological target: Fc tagged human TNFR1 (Sino Biological) (human) (UniProt P19438); experiment: SPR (Biacore T200) single cycle kinetics, Fc-tagged receptor captured on Protein A chip, TNF protein as analyte at 1.67-15 nM
[2] = biological target: Fc tagged human TNFR1 (Sino Biological) (human) (UniProt P19438); experiment: phage binding test on Fc tagged receptor

Substance | binding [1] | binding [2]
mouse TNF (mTNF), soluble protein expressed from pANT65 (from UniProt P06804 80-235) (ligand) | binds | –
phage displaying mTNF (gene III fusion, pANT65) (from UniProt P06804 80-235) | – | binds
